Reference: US12264163B2, “Compounds and methods for treating fibrotic pathologies” (Mayo Foundation for Medical Education and Research, priority 2019, dated 2025)
pIC50: −log10 of the molar value. Some of these results come from one statement about several compounds together.

Test system: YAP/TAZ
Assay: YAP/TAZ nuclear localization in adult lung fibroblasts, dose response (Cytation 5)
Assay type: cell-based, human
Details: adult lung fibroblasts sparsely plated, treated 2 hours; read-out: IC50, inhibition of YAP/TAZ nuclear localization
Method: Adult lung fibroblasts (N=2) sparsely plated into 96-well plates. Treated for 2 hours with compounds prior to fixing and immunostaining for YAP/TAZ.
Immunofluorescence Microscopy: Cells were plated into 96 well plates (Corning 3603) in their specific growth media and allowed to attach (8 hours). Media was then exchanged for the indicated conditions for each experiment. Cells were fixed in 3.7% formalin (Sigma-Aldrich), permeabilized in 0.25% Triton X-100 (Sigma-Aldrich) and then blocked with 1% BSA for 1 h. Cells or tissue sections were incubated overnight with mouse monoclonal antibody against αSMA (Sigma-Aldrich F3777), and/or a rabbit monoclonal antibody against YAP/TAZ (Cell Signaling D24E4) diluted 1:200 in PBS with 1% BSA. […] For scoring αSMA positive cells (FIG. 12), an observer blinded to the treatment conditions counted αSMA-positive cells using a visual threshold for bright fibrous staining; a minimum of 200 cells was counted for each condition. YAP/TAZ localization was quantified (FIGS. 6-10, 24-26, and 29-30) using Gen5 (Biotek) software. […] Quantification of double positive (YAP/TAZ and αSMA) cells from lung tissue sections (FIG. 17-21) was performed similarly; however separate thresholds were established for both YAP/TAZ and αSMA. A minimum of 4000 cells was quantified for each mouse.

SMILES: NCC1OC(c2ccncc2)Cc2c1ccc(O)c2O (stereo not shown) [CTC-6]
- pIC50: 7.00 to 7.30
